According to paper PMC12670400 (Journal of Medicinal Chemistry, 2025):

Assay: general procedure: Fmoc solid-phase peptide synthesis; preloaded Fmoc-Cys Wang resin (0.7 mmol/g) for 2-6; hydrazine carbamate Wang resin (0.9 mmol/g) for 7-10; HBTU/HOBt/DIPEA (plus DMAP for 7-10)
Conditions: cyclisation step; for final HPLC purity: 280 nm
[1] = bicyclic, sequence written open
[2] = relative to the linear peptide, bicyclic, sequence written open

With “cyclo(GSCTRSSPPECWPN) (disulfide 3-11; SMILES C[C@@H](O)[C@@H]1NC(=O)[C@@H]2CSSC[C@H](NC(=O)[C@H](CCC(=O)O)NC(=O)[C@@H]3CCCN3C(=O)[C@@H]3CCCN3C(=O)[C@H](CO)NC(=O)[C@H](CO)NC(=O)[C@H](CCCNC(=N)N)NC1=O)C(=O)N[C@@H](Cc1c[nH]c3ccccc13)C(=O)N1CCC[C@H]1C(=O)N[C@@H](CC(N)=O)C(=O)NCC(=O)N[C@@H](CO)C(=O)N2)” as the substance, how does the “final HPLC purity” value read?
The value was “over 95%”.

What about the cyclisation yield (from linear peptide) of the same substance?
Its cyclisation yield is 9%.

Which results are given for “cyclo(GFCTRENPPHCWPN) (disulfide 3-11; SMILES C[C@@H](O)[C@@H]1NC(=O)[C@@H]2CSSC[C@H](NC(=O)[C@H](Cc3c[nH]cn3)NC(=O)[C@@H]3CCCN3C(=O)[C@@H]3CCCN3C(=O)[C@H](CC(N)=O)NC(=O)[C@H](CCC(=O)O)NC(=O)[C@H](CCCNC(=N)N)NC1=O)C(=O)N[C@@H](Cc1c[nH]c3ccccc13)C(=O)N1CCC[C@H]1C(=O)N[C@@H](CC(N)=O)C(=O)NCC(=O)N[C@@H](Cc1ccccc1)C(=O)N2)”?
final HPLC purity: over 95%; cyclisation yield (relative to the linear peptide): 14%

Which “final HPLC purity” value does the source give for “PEPTIDE1{G.R.C.T.R.S.I.P.P.H.C.W.P.D}$PEPTIDE1,PEPTIDE1,1:R1-14:R2|PEPTIDE1,PEPTIDE1,3:R3-11:R3$$$V2.0” here?
The value was “over 95%”.

What about the cyclisation yield (relative to the linear peptide) of the same substance?
Its cyclisation yield is 18%.

For GFCTRSNPPHCWPN, which “final HPLC purity” value [1] is on record?
Its value is “over 95%”.

What about the cyclisation yield [2] of the same substance?
The cyclisation yield was 15%.

For “PEPTIDE1{G.F.C.H.R.S.Y.P.P.E.C.W.P.N}$PEPTIDE1,PEPTIDE1,1:R1-14:R2|PEPTIDE1,PEPTIDE1,3:R3-11:R3$$$V2.0”, which “final HPLC purity” value is on record?
Its value is “over 95%”.

What about the cyclisation yield (from linear peptide) of the same substance?
Its cyclisation yield is 6%.

Which results are given for “cyclo(GFCHRSYPPHCWPN) (disulfide 3-11; SMILES N=C(N)NCCC[C@@H]1NC(=O)[C@H](Cc2c[nH]cn2)NC(=O)[C@@H]2CSSC[C@H](NC(=O)[C@H](Cc3c[nH]cn3)NC(=O)[C@@H]3CCCN3C(=O)[C@@H]3CCCN3C(=O)[C@H](Cc3ccc(O)cc3)NC(=O)[C@H](CO)NC1=O)C(=O)N[C@@H](Cc1c[nH]c3ccccc13)C(=O)N1CCC[C@H]1C(=O)N[C@@H](CC(N)=O)C(=O)NCC(=O)N[C@@H](Cc1ccccc1)C(=O)N2)”?
final HPLC purity: over 95%; cyclisation yield (relative to the linear peptide): 15%

For GFCTRSNPPECWPN, which “final HPLC purity” value [1] is on record?
The value was “over 95%”.

And the cyclisation yield (from linear peptide, bicyclic, sequence written open)?
The cyclisation yield was 8%.

For cyclo(GYCTRSSPPECWPN) (disulfide 3-11), which “final HPLC purity” value is on record?
Its value is “over 95%”.

What about the cyclisation yield (from linear peptide) of the same substance?
The cyclisation yield was 12%.

With GFCHREYPPHCWPN as the substance, how does the “final HPLC purity” value [1] read?
Its value is “over 95%”.

What about the cyclisation yield [2] of the same substance?
The cyclisation yield was 18%.

Plain letter strings leave the end groups untold. The same purity stands for every peptide and may come from a single statement. HELM strings list residues between dots; [ac] is acetyl, [am] amide, other brackets name non-standard units. Bridge positions count the residues as written; N and C are the ends.
